PubChem BioAssay AID504804, Drosophila RNAi Screening Center, 2011
The screen tested about 19,000 reagents; shown is an unselected part of those that have a named target and a result. Of all reagents, 47 (0.25%) were called active. 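Signals are raw, not normalised; exact z-scores behind calls not deposited; actives needed confirmation, so some wells reaching 2 SD are inactive.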 Unmarked entries are inactive. Names joined by + are all predicted targets of the reagent.

Test: 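Fly genes whose loss lessens doxorubicin-driven cell death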 (primary screen)
System: Drosophila Kc cells
Reagent: long dsRNA against Drosophila genes, 0.5 µg dsRNA per well
Duration: 96 h (48 h knock-down, then 48 h drug)
Conditions: doxorubicin 5 µg/ml for 48 h, added 48 h after dsRNA
Detection: 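Viability measured as cellular ATP by luminescence after 48 h knock-down then 48 h doxorubicin at 5 µg/ml; unnormalised plate counts for each replicate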
Scale: raw ATP luminescence: higher = more viable cells, protection from doxorubicin
Rule for the call: 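Active when both duplicate wells lie at least 2 SD above the plate mean and protection is confirmed by rescreening and independent dsRNAs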

| predicted target | DRSC id | raw ATP luminescence, replicate 1 | raw ATP luminescence, replicate 2 |
| --- | --- | --- | --- |
| Vha100-3 (GeneID 246543) | DRSC05760 | 1.60e5 | 1.43e5 |
| CG2616 (GeneID 40915) | DRSC15440 | 63090 | 68697 |
| CG34292 (GeneID 5740196) | DRSC13807 | 2.25e5 | 2.23e5 |
| Calx (GeneID 42481) | DRSC13457 | 2.50e5 | 3.28e5 |
| Calx (GeneID 42481) | DRSC13459 | 1.92e5 | 2.07e5 |
| Calx (GeneID 42481) | DRSC16599 | 56110 | 70760 |
| CG6295 (GeneID 43247) | DRSC16012 | 44530 | 39210 |
| RagC-D (GeneID 35793) | DRSC07239 | 86087 | 49647 |
| Rab9Db + Rab9Fa | DRSC18445 | 3.77e5 | 3.41e5 |
| CG42449 (GeneID 31486) | DRSC18084 | 52790 | 56270 |
| CG14650 (GeneID 40566) | DRSC12236 | 22683 | 31897 |
| Pa1 (GeneID 32079) | DRSC19422 | 3.27e5 | 2.61e5 |

Part of the list above, reformatted.
{"predicted target": "Calx (GeneID 42481)", "DRSC id": "DRSC13457", "raw ATP luminescence, replicate 1": 2.50e5, "raw ATP luminescence, replicate 2": 3.28e5}
{"predicted target": "Calx (GeneID 42481)", "DRSC id": "DRSC13459", "raw ATP luminescence, replicate 1": 1.92e5, "raw ATP luminescence, replicate 2": 2.07e5}
{"predicted target": "Calx (GeneID 42481)", "DRSC id": "DRSC16599", "raw ATP luminescence, replicate 1": 56110, "raw ATP luminescence, replicate 2": 70760}

Additional reagents follow:
| predicted target | DRSC id | raw ATP luminescence, replicate 1 | raw ATP luminescence, replicate 2 |
| --- | --- | --- | --- |
| CG12640 (GeneID 31973) | DRSC17847 | 3.93e5 | 3.89e5 |
| CG11470 (GeneID 43480) | DRSC14313 | 54970 | 52120 |
| Vha100-2 (GeneID 42216) | DRSC14152 | 47170 | 47440 |
| SpdS (GeneID 41167) | DRSC16408 | 62213 | 62677 |
| cue (GeneID 38174) | DRSC08248 | 77460 | 67253 |
| PIG-T (GeneID 31772) | DRSC17774 | 56960 | 36500 |
| CtsL3 (GeneID 40741) | DRSC12171 | 41410 | 18743 |
| CG6163 (GeneID 39274) | DRSC10595 | 58337 | 67533 |
| IleRS (GeneID 45785) | DRSC11667 | 27913 | 26627 |
| CG11180 (GeneID 37330) | DRSC06055 | 57420 | 44860 |
| Cyp4ac2 (GeneID 33755) | DRSC03303 | 27990 | 33863 |
| Kmn1 (GeneID 32102) | DRSC19666 | 2.50e5 | 2.46e5 |
| CG9706 (GeneID 39876) | DRSC11095 | 23623 | 21933 |
| ouib (GeneID 41039) | DRSC14376 | 52870 | 59893 |
| Txl (GeneID 38646) | DRSC11310 | 69410 | 75927 |
| beat-IIa (GeneID 42086) | DRSC14813 | 68060 | 82500 |
| beat-IIa (GeneID 42086) | DRSC14814 | 90560 | 73050 |
| CG17005 (GeneID 34249) | DRSC02556 | 38230 | 65757 |
| CG14000 + bchs | DRSC02333 | 34737 | 42780 |
| CG31178 (GeneID 42575) | DRSC14590 | 53750 | 53500 |
| DUBAI + Tmem18 | DRSC05344 | 93360 | 84123 |
| CG3906 (GeneID 37721) | DRSC04431 | 73263 | 52510 |
